Values of other authors, collected in patent publication US20080279952A1, “Controlled-Release Flupirtine Compositions, Compacts, Kits and Methods of Making and Use Thereof” (priority 2007, published 2008).
At least one compound was matched to its structure with a doubt left.

Test system: α1-, α2-, 5HT1-, 5HT2-, dopamine, benzodiazepine, opiate, central muscarinergic or nicotinergic receptors
Conditions: therapeutically relevant concentrations

CCOC(=O)Nc1ccc(NCc2ccc(F)cc2)nc1N [flupirtine]
binding to receptors: does not bond
